The target of one experiment is GST-CKAP4-ECD (human) (UniProt Q07065). Description: pull-down: 0.5 nM GST-CKAP4-ECD with 0 to 16 nM Dkk1, immunoblot with anti-Dkk1 antibody.
In experiment [1] the target is CKAP4 of MDCK cells (endogenous) (canine). Description: co-IP with anti-FLAG antibody from MDCK cell lysate, immunoblot. A general note: Immunoblotting shows a protein as a band on a membrane.
Experiment [2] concerns the target LRP6 of MDCK cells (endogenous) (canine). The experiment is described as above.
In experiment [3] the target is CKAP4 of MDCK cells (endogenous) (canine). The experiment is described as follows: co-IP with anti-FLAG antibody from MDCK/Dkk1-FLAG cell lysate, immunoblot.
In experiment [4] the target is LRP6 of MDCK cells (endogenous) (canine). Description: co-IP with anti-FLAG antibody from MDCK/Dkk1-FLAG cell lysate, immunoblot (positive control).
Experiment [5] has as its target CKAP4 of MDCK cells (endogenous) (canine). The experiment is described as follows: co-IP with anti-FLAG antibody from MDCK/Dkk1-FLAG-GPI cell lysate, immunoblot.
In experiment [6] the target is LRP6 of MDCK cells (endogenous) (canine). The experiment is described as follows: co-IP with anti-FLAG antibody from MDCK/Dkk1-FLAG-GPI cell lysate, immunoblot (positive control).

Chains of the proteins cited; added tags and fusions are not shown. Lines headed by an entry give the natural chain unless they say otherwise; changes in a name come on top.
UniProt Q07065: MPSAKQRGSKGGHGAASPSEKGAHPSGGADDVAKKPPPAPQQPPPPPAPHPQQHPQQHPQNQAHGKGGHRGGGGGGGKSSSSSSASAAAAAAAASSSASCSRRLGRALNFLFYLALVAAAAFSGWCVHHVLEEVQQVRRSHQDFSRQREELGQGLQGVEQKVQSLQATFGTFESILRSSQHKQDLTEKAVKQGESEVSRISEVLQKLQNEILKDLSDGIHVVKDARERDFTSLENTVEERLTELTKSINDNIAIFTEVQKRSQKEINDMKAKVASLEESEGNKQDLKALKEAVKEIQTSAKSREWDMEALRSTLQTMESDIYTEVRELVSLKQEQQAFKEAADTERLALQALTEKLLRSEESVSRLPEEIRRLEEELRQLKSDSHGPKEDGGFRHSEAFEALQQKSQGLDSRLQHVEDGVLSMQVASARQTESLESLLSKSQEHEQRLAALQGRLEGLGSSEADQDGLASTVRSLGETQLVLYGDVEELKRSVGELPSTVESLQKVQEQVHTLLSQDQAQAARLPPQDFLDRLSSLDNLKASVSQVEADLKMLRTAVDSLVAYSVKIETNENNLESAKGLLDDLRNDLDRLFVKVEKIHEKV

Our source for the binding values is patent US20180037649A1 (OSAKA UNIVERSITY, published 2018).

Results are given in words; binding and its absence hold for the method and conditions named. In cells and extracts the contact can be indirect. Some entries that bind do so weakly or less than the wild type. For some of these results: Where a sequence is shown, tags or fusion partners need not be part of it.

B1: Dkk1 (R&D Systems) (ligand, UniProt O94907 32-266, looked up)
chain: TLNSVLNSNAIKNLPPPLGGAAGHPGSAVSAAPGILYPGGNKYQTIDNYQPYPCAEDEECGTDEYCASPTRGGDAGVQICLACRKRRKRCMRHAMCCPGNYCKNGICVSSDQNHFRGEIEETITESFGNDHSTLDGYSRRTTLSSKMYHTKGQEGSVCLRSSDCASGLCCARHFWSKICKPVLKEGQVCTKHRRKGSHGLEIFQRCYCGEGLSCRIQKDHHQASNSSRLHTCQRH
Consider B1, for which the binding result with GST-CKAP4-ECD (human) is “binds”.

B2: Dkk1-FLAG (wild-type human Dkk1 tagged with FLAG at the C-terminal) (ligand, UniProt O94907 32-266, looked up)
chain: B1 chain
notes: Expressed in MDCK or X293T cells; pulled down from cell lysates with an anti-FLAG antibody; also called WT-FLAG; wild-type Dkk1-FLAG (WT); not shown: FLAG tag at the C-terminal
As to B2, the binding result in experiment [1], in experiment [2], in experiment [3] and in experiment [4] was “binds” each time.

B3: Dkk1-FLAG-GPI (ligand, human, UniProt O94907 32-266, looked up, not shown: small tags and cut ends; large carriers)
chain: B1 chain
modifications: glycosylphosphatidylinositol (GPI) anchor at the C-terminal side
As to B3, the binding entry in experiment [5] and in experiment [6] was “binds” in each case.
